Earlier results as cited in US20250232849A1, “SYSTEM AND METHOD OF MANIFOLD KERNELIZATION OF MOLECULAR SURFACE” (Purdue Research Foundation, priority 2023, published 2025).
Some entries share one result that the patent states for a list of compounds.

Settings: water solubility, Solubility Challenges datasets, values quoted in the text

## CC(C)/N=c1\cc2n(-c3ccc(Cl)cc3)c3ccccc3nc-2cc1Nc1ccc(Cl)cc1 [clofazimine]
  solubility (experimental value): < −7.0 logarithm unit
